Measured values from publication PMC6689063.
These are yes or no findings as the source states them, for the method shown.

B1: AztD from Paracoccus denitrificans (WT PdAztD) (protein, UniProt A1B2F4 22-408)
chain: QDHDHDHEDVTLYRVFVGDHEKGQVTAFDLAEPDHRWTFPTTGQVKLYSVAGGAVVAAVQSDADTVQFIRSGISFHDHGDHRDIEVGDPAAIDASLTGPRPFHLVEHDGKVVLNYDQGGYAEILDGHALAEGKAEPGRFPQARAHHGFVAPLGGNWLSTVASDEKVEGDASVPRLGLQAFDAEGNPAGNLATCTGIHGEAFSGAYLAAGCKEGVLTVKAGANGSEYKLLPYPADLPQGVTTGTLLGSTGIQVFLGNYGPDGLVVIDPVDEPHYRYIKLPFRRVDFALDPAKPSTGYVLTEDGSLHRIDLLKAEIVASAKVTEPYSMDGHWNDPRPRIAMAGDEIVVTDPNAGLVRRIATEDLSERGTVPVEGKPYNIAVTGGSGVTH
B2: AztD from Citrobacter koseri (CkAztD) (protein, UniProt A8AF35 30-421)
chain: DEDVTAWRLFIADHDKPVVNVIDALDGDKLATFNVKGPANLSRSESGATIFAIQGSAGVVSTIASGIAFHDHGDHADIDIDAPKLLPLELTGKKPGHFVERQGKIAQWFDGEDSAQILGESAVLKGQKNITKVNVVAPHHGVAVPYDNYAVVSIPNPDDASKRPVGARVVDLQGKKVGDDALCPGLHGSAGSGDTFALSCETGLLLITQKNAAPVIRHLPYAKTLPEGSTSTLIGGKGMQYFIGNYGPDRIILVDPTESDSFRLIQLPTRRVHFVVDPVRAKFAYVFTEDGKLNQIDVLKGEISQSVRVTDPYSMDGHWNDPRPRIAVADNKIYVTDPLKSKIIVLDATSFKKTSEISVEGQPFNIVAVGGSGKVHGEHHDHEAHHHDDHAH

Tests used:
[1] = target: AztD from Paracoccus denitrificans (WT PdAztD) (Paracoccus denitrificans PD1222) (UniProt A1B2F4); assay: SEC; size exclusion chromatography of the purified protein in solution (Supplementary Fig. 3); both purified
[2] = target: AztD from Citrobacter koseri (CkAztD) (Citrobacter koseri strain 4225-83) (UniProt A8AF35); assay: crystal structure; native CkAztD, two monomers in the asymmetric unit; site 2 of chain A projects into the pore of chain B; crystals grown under paraffin oil, PEG 4000, MES pH 6.0; both purified
[3] = target: AztD from Citrobacter koseri (CkAztD) (Citrobacter koseri strain 4225-83) (UniProt A8AF35); assay: SEC; size exclusion chromatography of the purified protein in solution (Supplementary Fig. 3); both purified

| Binder | binding [1] | binding [2] | binding [3] |
| --- | --- | --- | --- |
| B1 | no binding |  |  |
| B2 |  | no binding | no binding |
